The supplement of paper PMC10849652
Some of the results follow. Residues, ends and D or L forms follow the SMILES beside them. *: point of attachment. Cbz = O=C(OCc1ccccc1)*

Chains of the proteins cited; added tags and fusions are not shown. Lines headed by an entry give the natural chain unless they say otherwise; changes in a name come on top.
UniProt Q5VZ89: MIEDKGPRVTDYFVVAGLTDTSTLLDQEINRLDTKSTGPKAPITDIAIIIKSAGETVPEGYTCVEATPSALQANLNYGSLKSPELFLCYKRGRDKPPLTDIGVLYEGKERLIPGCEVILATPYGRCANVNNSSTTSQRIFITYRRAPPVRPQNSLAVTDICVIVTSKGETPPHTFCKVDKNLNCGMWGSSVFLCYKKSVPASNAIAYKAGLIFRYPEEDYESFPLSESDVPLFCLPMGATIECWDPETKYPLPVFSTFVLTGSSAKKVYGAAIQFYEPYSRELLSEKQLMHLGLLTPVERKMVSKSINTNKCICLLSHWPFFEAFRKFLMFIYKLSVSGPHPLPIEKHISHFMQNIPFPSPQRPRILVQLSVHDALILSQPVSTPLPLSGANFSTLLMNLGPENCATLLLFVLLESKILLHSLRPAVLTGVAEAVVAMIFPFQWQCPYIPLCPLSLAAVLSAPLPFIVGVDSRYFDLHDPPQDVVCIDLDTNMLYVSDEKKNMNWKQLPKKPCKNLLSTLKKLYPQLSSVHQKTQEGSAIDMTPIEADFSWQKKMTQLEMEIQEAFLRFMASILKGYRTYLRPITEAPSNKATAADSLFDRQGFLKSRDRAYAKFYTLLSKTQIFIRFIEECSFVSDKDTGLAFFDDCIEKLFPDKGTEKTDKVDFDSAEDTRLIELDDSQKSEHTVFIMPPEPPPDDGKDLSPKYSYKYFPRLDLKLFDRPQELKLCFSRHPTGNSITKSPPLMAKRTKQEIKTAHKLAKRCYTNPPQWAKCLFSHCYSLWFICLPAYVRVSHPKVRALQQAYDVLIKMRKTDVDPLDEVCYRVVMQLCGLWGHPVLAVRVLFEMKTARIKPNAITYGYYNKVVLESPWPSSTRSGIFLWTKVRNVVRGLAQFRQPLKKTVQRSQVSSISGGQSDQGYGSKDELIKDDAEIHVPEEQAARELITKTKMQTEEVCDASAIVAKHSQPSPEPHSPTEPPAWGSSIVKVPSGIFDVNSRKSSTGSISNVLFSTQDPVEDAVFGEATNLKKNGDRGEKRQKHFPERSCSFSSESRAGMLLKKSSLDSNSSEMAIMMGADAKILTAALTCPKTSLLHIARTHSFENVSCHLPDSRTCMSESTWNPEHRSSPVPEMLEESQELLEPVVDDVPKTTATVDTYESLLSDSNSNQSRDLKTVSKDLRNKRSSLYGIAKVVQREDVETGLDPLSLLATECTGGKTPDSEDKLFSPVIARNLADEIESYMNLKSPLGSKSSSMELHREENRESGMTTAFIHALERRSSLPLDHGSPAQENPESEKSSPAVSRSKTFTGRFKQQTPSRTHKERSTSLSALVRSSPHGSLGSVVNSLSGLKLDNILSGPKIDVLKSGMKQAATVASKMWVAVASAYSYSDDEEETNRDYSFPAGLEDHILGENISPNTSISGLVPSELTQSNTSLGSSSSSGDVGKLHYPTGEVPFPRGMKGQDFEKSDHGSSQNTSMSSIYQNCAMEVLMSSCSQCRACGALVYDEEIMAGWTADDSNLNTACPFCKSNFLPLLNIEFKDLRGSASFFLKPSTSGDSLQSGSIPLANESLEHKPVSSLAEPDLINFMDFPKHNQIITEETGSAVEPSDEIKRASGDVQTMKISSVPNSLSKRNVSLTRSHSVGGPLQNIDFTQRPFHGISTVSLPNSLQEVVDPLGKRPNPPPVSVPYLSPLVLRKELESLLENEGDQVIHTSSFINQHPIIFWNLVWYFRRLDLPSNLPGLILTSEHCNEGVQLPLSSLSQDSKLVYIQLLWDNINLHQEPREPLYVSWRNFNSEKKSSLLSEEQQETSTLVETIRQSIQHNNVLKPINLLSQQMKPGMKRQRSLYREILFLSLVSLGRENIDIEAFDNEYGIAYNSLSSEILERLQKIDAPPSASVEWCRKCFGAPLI
UniProt Q9P265: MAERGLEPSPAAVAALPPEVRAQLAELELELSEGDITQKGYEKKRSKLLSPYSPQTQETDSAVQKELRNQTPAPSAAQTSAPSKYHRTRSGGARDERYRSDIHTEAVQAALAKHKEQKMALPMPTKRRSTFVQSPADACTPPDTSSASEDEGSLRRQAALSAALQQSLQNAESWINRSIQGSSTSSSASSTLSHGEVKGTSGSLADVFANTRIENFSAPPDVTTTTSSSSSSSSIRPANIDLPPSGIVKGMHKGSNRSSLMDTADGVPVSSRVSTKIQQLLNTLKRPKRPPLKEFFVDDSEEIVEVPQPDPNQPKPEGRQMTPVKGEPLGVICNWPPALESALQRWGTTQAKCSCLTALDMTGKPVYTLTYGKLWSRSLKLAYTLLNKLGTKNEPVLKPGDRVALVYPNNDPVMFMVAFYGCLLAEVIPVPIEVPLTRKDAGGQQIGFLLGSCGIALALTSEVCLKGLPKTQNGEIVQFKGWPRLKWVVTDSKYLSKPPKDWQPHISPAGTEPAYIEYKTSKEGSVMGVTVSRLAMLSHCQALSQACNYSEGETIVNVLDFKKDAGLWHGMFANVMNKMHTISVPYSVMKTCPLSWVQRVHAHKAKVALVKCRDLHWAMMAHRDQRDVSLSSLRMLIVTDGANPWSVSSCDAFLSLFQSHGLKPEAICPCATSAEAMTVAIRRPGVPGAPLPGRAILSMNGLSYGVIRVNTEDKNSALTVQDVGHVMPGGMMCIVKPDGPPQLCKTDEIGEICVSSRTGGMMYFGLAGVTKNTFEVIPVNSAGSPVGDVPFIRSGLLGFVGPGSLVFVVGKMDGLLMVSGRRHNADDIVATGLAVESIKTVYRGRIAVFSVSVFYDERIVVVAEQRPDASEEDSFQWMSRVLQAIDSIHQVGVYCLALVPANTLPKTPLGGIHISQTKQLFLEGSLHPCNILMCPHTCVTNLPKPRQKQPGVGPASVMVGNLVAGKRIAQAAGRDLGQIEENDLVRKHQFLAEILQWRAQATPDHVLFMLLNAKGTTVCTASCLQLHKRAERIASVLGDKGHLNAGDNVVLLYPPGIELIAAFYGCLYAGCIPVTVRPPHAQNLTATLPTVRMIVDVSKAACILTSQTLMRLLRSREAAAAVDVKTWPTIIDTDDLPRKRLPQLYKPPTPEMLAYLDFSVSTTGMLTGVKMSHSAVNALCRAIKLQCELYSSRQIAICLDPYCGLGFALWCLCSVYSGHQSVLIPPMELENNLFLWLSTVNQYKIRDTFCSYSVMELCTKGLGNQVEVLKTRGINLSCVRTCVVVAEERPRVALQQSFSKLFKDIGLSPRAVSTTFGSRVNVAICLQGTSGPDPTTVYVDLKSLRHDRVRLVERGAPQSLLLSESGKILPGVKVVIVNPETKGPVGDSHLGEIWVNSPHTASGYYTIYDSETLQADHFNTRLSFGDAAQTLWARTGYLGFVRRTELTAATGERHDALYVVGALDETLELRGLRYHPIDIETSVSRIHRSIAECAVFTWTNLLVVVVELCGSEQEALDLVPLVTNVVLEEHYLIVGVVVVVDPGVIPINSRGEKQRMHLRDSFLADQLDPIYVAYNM
UniProt Q12959, whole entry, looked up: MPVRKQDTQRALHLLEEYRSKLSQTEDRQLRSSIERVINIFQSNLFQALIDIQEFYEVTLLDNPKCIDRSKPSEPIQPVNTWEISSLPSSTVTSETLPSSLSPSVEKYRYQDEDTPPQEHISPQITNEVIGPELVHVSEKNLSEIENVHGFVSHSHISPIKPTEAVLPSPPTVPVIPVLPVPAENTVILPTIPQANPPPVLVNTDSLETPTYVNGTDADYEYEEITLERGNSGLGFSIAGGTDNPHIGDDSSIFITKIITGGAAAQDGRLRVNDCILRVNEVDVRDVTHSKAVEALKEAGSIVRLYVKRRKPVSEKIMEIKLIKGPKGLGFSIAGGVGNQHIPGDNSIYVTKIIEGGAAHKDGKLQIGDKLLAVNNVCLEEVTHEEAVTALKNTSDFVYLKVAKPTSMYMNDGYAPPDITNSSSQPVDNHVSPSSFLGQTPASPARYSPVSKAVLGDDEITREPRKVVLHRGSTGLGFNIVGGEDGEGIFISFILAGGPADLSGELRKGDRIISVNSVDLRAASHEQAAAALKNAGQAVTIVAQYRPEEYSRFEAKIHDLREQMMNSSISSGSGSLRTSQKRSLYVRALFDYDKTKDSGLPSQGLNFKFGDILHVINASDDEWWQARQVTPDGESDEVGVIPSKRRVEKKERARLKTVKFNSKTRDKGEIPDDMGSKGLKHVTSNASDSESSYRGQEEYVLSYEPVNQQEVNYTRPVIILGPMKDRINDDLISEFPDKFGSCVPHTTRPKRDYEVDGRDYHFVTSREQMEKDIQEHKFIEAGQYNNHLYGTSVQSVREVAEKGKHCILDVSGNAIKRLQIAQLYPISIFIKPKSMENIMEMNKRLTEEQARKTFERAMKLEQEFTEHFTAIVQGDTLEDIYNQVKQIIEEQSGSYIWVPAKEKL
UniProt O76075: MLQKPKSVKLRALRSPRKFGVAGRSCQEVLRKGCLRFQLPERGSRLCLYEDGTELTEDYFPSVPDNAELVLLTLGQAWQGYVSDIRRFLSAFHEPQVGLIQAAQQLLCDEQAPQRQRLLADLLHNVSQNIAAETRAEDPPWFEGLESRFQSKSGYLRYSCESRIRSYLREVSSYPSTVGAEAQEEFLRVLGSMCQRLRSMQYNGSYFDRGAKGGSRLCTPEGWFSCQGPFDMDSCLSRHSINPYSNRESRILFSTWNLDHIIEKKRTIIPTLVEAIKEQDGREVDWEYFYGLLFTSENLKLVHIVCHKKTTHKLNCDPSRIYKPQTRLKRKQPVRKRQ
UniProt Q13838, whole entry, looked up: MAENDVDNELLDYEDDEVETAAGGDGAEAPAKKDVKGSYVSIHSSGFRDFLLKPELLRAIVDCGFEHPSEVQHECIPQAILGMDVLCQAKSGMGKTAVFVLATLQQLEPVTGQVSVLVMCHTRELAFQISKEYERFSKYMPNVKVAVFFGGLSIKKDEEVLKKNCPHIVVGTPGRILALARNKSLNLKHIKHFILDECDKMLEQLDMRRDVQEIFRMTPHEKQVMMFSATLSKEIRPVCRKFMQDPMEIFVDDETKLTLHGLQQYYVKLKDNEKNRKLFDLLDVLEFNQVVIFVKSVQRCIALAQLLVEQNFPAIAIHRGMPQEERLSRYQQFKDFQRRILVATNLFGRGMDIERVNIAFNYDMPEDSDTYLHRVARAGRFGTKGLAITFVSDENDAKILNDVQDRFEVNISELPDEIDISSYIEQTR
UniProt P26196: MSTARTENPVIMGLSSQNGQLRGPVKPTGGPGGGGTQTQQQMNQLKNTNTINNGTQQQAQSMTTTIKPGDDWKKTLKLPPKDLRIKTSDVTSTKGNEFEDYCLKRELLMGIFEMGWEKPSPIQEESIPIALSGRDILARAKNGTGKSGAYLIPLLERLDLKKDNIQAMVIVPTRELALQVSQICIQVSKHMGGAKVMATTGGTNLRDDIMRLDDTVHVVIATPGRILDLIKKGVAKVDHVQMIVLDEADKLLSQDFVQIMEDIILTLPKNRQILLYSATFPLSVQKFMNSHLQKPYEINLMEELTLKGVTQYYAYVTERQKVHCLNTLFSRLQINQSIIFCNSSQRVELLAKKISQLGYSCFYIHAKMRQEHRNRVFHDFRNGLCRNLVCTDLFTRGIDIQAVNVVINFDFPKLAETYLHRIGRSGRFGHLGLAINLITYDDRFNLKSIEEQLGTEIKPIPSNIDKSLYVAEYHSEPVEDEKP
UniProt P39656: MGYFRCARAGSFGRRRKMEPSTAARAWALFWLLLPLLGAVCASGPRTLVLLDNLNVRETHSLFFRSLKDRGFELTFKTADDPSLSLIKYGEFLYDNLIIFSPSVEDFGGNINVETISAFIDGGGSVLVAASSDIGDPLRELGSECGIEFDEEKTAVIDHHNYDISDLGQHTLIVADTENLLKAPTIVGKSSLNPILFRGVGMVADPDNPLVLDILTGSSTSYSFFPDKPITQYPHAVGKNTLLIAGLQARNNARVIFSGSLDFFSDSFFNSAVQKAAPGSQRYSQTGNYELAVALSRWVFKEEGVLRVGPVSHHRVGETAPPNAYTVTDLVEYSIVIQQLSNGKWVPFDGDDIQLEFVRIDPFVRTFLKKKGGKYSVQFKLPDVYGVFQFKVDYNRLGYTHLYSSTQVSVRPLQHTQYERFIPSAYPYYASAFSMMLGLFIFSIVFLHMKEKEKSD
UniProt Q9UMR2: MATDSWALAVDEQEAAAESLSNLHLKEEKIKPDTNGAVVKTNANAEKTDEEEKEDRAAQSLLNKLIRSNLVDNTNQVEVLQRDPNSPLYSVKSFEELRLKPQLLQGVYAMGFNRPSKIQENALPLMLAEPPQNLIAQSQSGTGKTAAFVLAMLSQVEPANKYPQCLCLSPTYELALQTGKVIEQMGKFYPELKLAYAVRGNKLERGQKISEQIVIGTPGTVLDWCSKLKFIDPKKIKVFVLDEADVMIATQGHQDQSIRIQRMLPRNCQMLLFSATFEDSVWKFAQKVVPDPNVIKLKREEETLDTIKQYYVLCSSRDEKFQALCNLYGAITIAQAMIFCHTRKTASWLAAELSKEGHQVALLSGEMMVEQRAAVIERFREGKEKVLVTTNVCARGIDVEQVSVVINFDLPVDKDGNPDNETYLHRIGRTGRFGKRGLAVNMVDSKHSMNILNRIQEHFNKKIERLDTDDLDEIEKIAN

Columns and labels:
Assay in all cases: log2 fold change, soluble protein after heating vs DMSO (PISA); higher = thermal stabilisation; K562 cells, 10 uM, 30 min; active = over 0.2 and 3.5 SD of the protein, either way, in both replicates (recomputed)
erlotinib = compound: C#Cc1cccc(Nc2ncnc3cc(OCCOC)c(OCCOC)cc23)c1 [erlotinib]
How it was run: (§1)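 K562 cells at 2×10^6 cells/mL were exposed to 10 μM compound for 30 min, then aliquots were heated for 3 min across 48°C-58°C, pooled, and extracted in PBS containing 0.5% NP-40 at 4°C. The supernatant after 21,000xg for 90 min was taken as soluble protein and measured by TMTpro 16plex LC-MS/MS with channel sums equalised. Thermal stability is reported relative to control samples, with values from duplicates. Fold changes are given on a log2 scale.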

[1] = compound: C/C(=N\NC(=O)C1=CC(=CC=C1)S(=O)(=O)N2CCOCC2)/C3=C(C=CC(=C3)Cl)O
How it was run: as §1

[2] = compound: C1=CC(=C(C=C1Cl)C2=NC3=NC=CN=C3C(=N2)NC4=CC=NC=C4)F
How it was run: as §1

[3] = compound: C1=CC(=CC=C1C2=NC3=C(N2)C=C(C=C3)C(=O)N)OC4=CC=C(C=C4)Cl
How it was run: as §1

[4] = compound: C1=CC2=C(C=CC(=C2)/C=C\3/C(=O)NC(=NCC4=CC=CS4)S3)N=C1
How it was run: as §1

[5] = compound: C1=CC2=NC=CN=C2C=C1/C=C/3\C(=O)NC(=O)S3
How it was run: as §1

[6] = compound: C1=CC=C(C=C1)C2=NC(=C(N2)C3=CC=NC=C3)C4=CC(=C(C=C4)Cl)O
How it was run: as §1

[7] = compound: C1=CC=C2C(=C1)C3=NNC4=CC=CC(=C43)C2=O
How it was run: as §1

[8] = compound: C1CCN(C1)C(=O)NC2=CC=CC(=C2)NC3=NC=C(C(=N3)NCCC4=CN=CN4)Br
How it was run: as §1

[9] = compound: C1CN(CCC1(CC2=CC=C(C=C2)Cl)N)C3=NC=NC4=C3C=CN4
How it was run: as §1

IRAK-1-4 Inhibitor I = compound: C1COCCN1CCN2C3=CC=CC=C3N=C2NC(=O)C4=CC(=CC=C4)[N+](=O)[O-] [IRAK-1-4 Inhibitor I]
How it was run: as §1

ibrutinib = compound: C=CC(=O)N1CCC[C@@H](n2nc(-c3ccc(Oc4ccccc4)cc3)c3c(N)ncnc32)C1 [ibrutinib]
How it was run: as §1

[10] = compound: CC(=O)c1cnc2ccc(-c3cc(Cl)c(O)c(Cl)c3)nc2c1N[C@H]1CC[C@H](CN(C)C)CC1
How it was run: as §1

ralimetinib = compound: CC(C)(C)Cn1c(N)nc2ccc(-c3[nH]c(C(C)(C)C)nc3-c3ccc(F)cc3)nc21 [ralimetinib]
How it was run: as §1

[11] = compound: CC(C)(O)CC(=O)NCCn1ccc2ncnc(Nc3ccc(Oc4cccc(C(F)(F)F)c4)c(Cl)c3)c21
How it was run: as §1

[12] = compound: CC(C)C1=C2N=C(C=C(N2N=C1)NCC3=CC=CC=C3)NCCCCCCN
How it was run: as §1

[13] = compound: CC(C)C[C@@H](C=O)NC(=O)[C@H](CC(C)C)NC(=O)[C@H](CC(C)C)NC(=O)OCc1ccccc1
How it was run: as §1

pinometostat = compound: CC(C)N(C[C@H]1O[C@@H](n2cnc3c(N)ncnc32)[C@H](O)[C@@H]1O)[C@H]1C[C@@H](CCc2nc3cc(C(C)(C)C)ccc3[nH]2)C1 [pinometostat]
How it was run: as §1

[14] = compound: CC1=C(C(CC(=O)N1)C2=CC=C(C=C2)C(F)(F)F)C(=O)NC3=C(C=C4C(=C3)C=NN4)F
How it was run: as §1

[15] = compound: CC1=C(C2=C(C=C1)C(=O)C3=CC=CC=C3N2CCCN)C
How it was run: as §1

Target	log2 fold change (erlotinib)	log2 fold change [1]	log2 fold change [2]	log2 fold change [3]	log2 fold change [4]	log2 fold change [5]	log2 fold change [6]	log2 fold change [7]	log2 fold change [8]	log2 fold change [9]	log2 fold change (IRAK-1-4 Inhibitor I)	log2 fold change (ibrutinib)	log2 fold change [10]	log2 fold change (ralimetinib)	log2 fold change [11]	log2 fold change [12]	log2 fold change [13]	log2 fold change (pinometostat)	log2 fold change [14]	log2 fold change [15]
DLGAP4 (UniProt Q9Y2H0)	inactive: -0.005	inactive: 0.035	inactive: 0.021	inactive: 0.017	inactive: -0.01	inactive: 0.016	inactive: 0.053	inactive: -0.023	inactive: 0.063	inactive: -0.01	inactive: 0.033	inactive: 0.03	inactive: -0.023	inactive: -0.003	inactive: -0.022	inactive: 0.028	inactive: 0.031	inactive: -0.041	inactive: 0.024	inactive: 0.018
DHX9 (UniProt Q08211)	inactive: -0.081	inactive: -0.095	inactive: -0.338	inactive: 0.033	inactive: -0.054	inactive: 0.065	inactive: -0.065	inactive: -0.083	inactive: 0.036	inactive: -0.103	inactive: -0.062	inactive: -0.017	inactive: 0.028	inactive: 0.08	inactive: 0.103	inactive: 0.243	inactive: 0.091	inactive: 0.199	inactive: -0.02	inactive: -0.114
DHX29 (UniProt Q7Z478)	inactive: 0.002	inactive: -0.029	inactive: -0.296	inactive: 0.054	inactive: -0.066	inactive: 0.018	inactive: -0.095	inactive: -0.016	inactive: 0.015	inactive: -0.096	inactive: -0.142	inactive: -0.037	inactive: 0.062	inactive: 0.162	inactive: 0.043	inactive: -0.005	inactive: 0.079	inactive: 0.14	inactive: -0.026	inactive: 0.064
DIS3 (UniProt Q9Y2L1)	inactive: 0.086	inactive: 0.128	inactive: 0.083	inactive: -0.002	inactive: 0.105	inactive: 0.032	inactive: 0.029	inactive: 0.031	inactive: -0.106	inactive: -0.068	inactive: -0.024	inactive: -0.02	inactive: -0.122	inactive: 0.026	inactive: -0.146	inactive: -0.165	inactive: -0.006	inactive: -0.003	inactive: 0.011	inactive: 0.105
DHX30 isoform 2 (UniProt Q7L2E3)	inactive: 0.007	inactive: -0.051	inactive: -0.292	inactive: -0.009	inactive: -0.002	inactive: 0.013	inactive: -0.04	inactive: 0.029	inactive: 0.022	inactive: -0.035	inactive: -0.16	inactive: 0.05	inactive: 0.008	inactive: 0.133	inactive: 0.03	inactive: -0.104	inactive: 0.106	inactive: 0.164	inactive: -0.041	inactive: -0.292
DDX3X (UniProt O00571)	inactive: 0.076	inactive: -0.034	inactive: -0.781	inactive: 0.054	inactive: 0.039	inactive: -0.031	inactive: -0.129	inactive: 0.094	inactive: -0.18	inactive: -0.39	inactive: -0.183	inactive: 0.045	inactive: -0.046	inactive: 0.386	inactive: 0.129	inactive: -0.127	inactive: 0.308	inactive: 0.668	inactive: 0.016	inactive: -0.103
DENND4C isoform 7 (UniProt Q5VZ89)	inactive: 0.016	inactive: 0.106	inactive: -0.03	inactive: -0.031	inactive: 0.052	inactive: -0.003	inactive: -0.043	inactive: -0.004	inactive: -0.078	inactive: 0.023	inactive: 0.052	inactive: -0.066	inactive: -0.108	inactive: 0.013	inactive: -0.092	inactive: -0.159	inactive: 0.063	inactive: 0.101	inactive: 0.065	inactive: 0.019
DIP2B (UniProt Q9P265)	inactive: -0.013	inactive: 0.052	inactive: 0.032	inactive: 0.006	inactive: 0.005	inactive: 0	inactive: -0.006	inactive: 0.004	inactive: -0.024	inactive: 0.052	inactive: 0.033	inactive: 0.023	inactive: -0.052	inactive: -0.042	inactive: 0	inactive: 0.067	inactive: -0.036	inactive: 0.016	inactive: -0.018	inactive: 0.076
DMAC2 isoform 4 (UniProt Q9NW81)	inactive: 0.043	inactive: 0.048	inactive: 0.063	inactive: -0.008	inactive: 0.075	inactive: -0.038	inactive: 0	inactive: 0.013	inactive: 0.062	inactive: 0.02	inactive: -0.067	inactive: -0.048	inactive: -0.051	inactive: -0.049	inactive: 0.018	inactive: 0.043	inactive: -0.012	inactive: -0.099	inactive: 0.018	inactive: 0.004
DLG1 isoform 2 (UniProt Q12959)	inactive: 0.028	inactive: -0.019	inactive: 0.015	inactive: 0.009	inactive: 0.016	inactive: 0.062	inactive: 0.025	inactive: 0.007	inactive: 0.002	inactive: -0.048	inactive: 0.009	inactive: 0.062	inactive: -0.156	inactive: 0.012	inactive: -0.078	inactive: -0.026	inactive: -0.006	inactive: 0.019	inactive: -0.018	inactive: 0.03
DFFB (UniProt O76075)	inactive: -0.015	inactive: 0.103	inactive: 0.022	inactive: 0.035	inactive: 0.101	inactive: 0.016	inactive: 0.037	inactive: -0.005	active: -0.305	inactive: -0.039	inactive: -0.002	inactive: -0.047	inactive: 0.011	inactive: 0.005	inactive: -0.148	inactive: 0.066	inactive: 0.045	inactive: 0.008		inactive: 0.009
DDX39B isoform 2 (UniProt Q13838)	inactive: -0.078	inactive: -0.008	inactive: -0.065	inactive: 0.004	inactive: 0.006	inactive: 0.014	inactive: -0.04	inactive: -0.037	inactive: 0.01	inactive: 0.017	inactive: -0.036	inactive: 0.01	inactive: -0.007	inactive: 0.009	inactive: 0.089	inactive: 0.083	inactive: 0	inactive: 0.017	inactive: -0.028	inactive: -0.02
DDX6 (UniProt P26196)	inactive: -0.018	inactive: 0.014	inactive: -0.031	inactive: 0.008	inactive: -0.01	inactive: -0.029	inactive: 0.051	inactive: -0.035	inactive: 0.016	inactive: -0.069	inactive: 0	inactive: 0.016	inactive: -0.095	inactive: 0.051	inactive: 0.013	inactive: -0.016	inactive: 0.037	inactive: 0.069	inactive: -0.007	inactive: 0.073
DDOST (UniProt P39656)	inactive: -0.033	inactive: 0.003	inactive: 0.004	inactive: -0.014	inactive: -0.085	inactive: 0.014	active: 0.253	inactive: 0.012	inactive: -0.002	inactive: -0.003	inactive: -0.038	inactive: -0.027	inactive: 0.057	inactive: 0.156	inactive: 0.015	inactive: -0.081	inactive: -0.036	inactive: 0.015		inactive: -0.041
DDX19B (UniProt Q9UMR2)	inactive: 0.063	inactive: 0.077	inactive: 0.041	inactive: -0.056	inactive: 0.038	inactive: 0.022	inactive: 0.076	inactive: 0.033	inactive: -0.026	inactive: 0.061	inactive: 0.022	inactive: -0.029	inactive: -0.014	inactive: 0.009	inactive: -0.108	inactive: -0.035	inactive: -0.008	inactive: -0.012	inactive: -0.008	inactive: 0.016
DHRS4L1 (UniProt P0CG22)	inactive: 0.022	inactive: 0.01	inactive: 0.047	inactive: -0.029	inactive: 0.045	inactive: 0.032	inactive: -0.038	inactive: -0.082	inactive: 0.039	inactive: 0.038	inactive: 0.022	inactive: -0.01	inactive: -0.037	inactive: -0.01	inactive: -0.004	inactive: 0.008	inactive: 0.03	inactive: -0.027	inactive: 0.057	inactive: 0.017

Some of the entries above in another layout.
Target,log2 fold change (erlotinib),log2 fold change [1],log2 fold change [2],log2 fold change [3],log2 fold change [4],log2 fold change [5],log2 fold change [6],log2 fold change [7],log2 fold change [8],log2 fold change [9],log2 fold change (IRAK-1-4 Inhibitor I),log2 fold change (ibrutinib),log2 fold change [10],log2 fold change (ralimetinib),log2 fold change [11],log2 fold change [12],log2 fold change [13],log2 fold change (pinometostat),log2 fold change [14],log2 fold change [15]
DLGAP4 (UniProt Q9Y2H0),inactive: -0.005,inactive: 0.035,inactive: 0.021,inactive: 0.017,inactive: -0.01,inactive: 0.016,inactive: 0.053,inactive: -0.023,inactive: 0.063,inactive: -0.01,inactive: 0.033,inactive: 0.03,inactive: -0.023,inactive: -0.003,inactive: -0.022,inactive: 0.028,inactive: 0.031,inactive: -0.041,inactive: 0.024,inactive: 0.018
DHX9 (UniProt Q08211),inactive: -0.081,inactive: -0.095,inactive: -0.338,inactive: 0.033,inactive: -0.054,inactive: 0.065,inactive: -0.065,inactive: -0.083,inactive: 0.036,inactive: -0.103,inactive: -0.062,inactive: -0.017,inactive: 0.028,inactive: 0.08,inactive: 0.103,inactive: 0.243,inactive: 0.091,inactive: 0.199,inactive: -0.02,inactive: -0.114
